Test results from the supplement of paper PMC6411743.
± gives the standard deviation of the averaged measurements. Only a part is listed here, and it is no random draw.

By UniProt entry, the sequences of proteins in these tests, tags left out. Where a name states a change or a piece, a line headed by the entry shows the natural chain unless it says otherwise.
UniProt P09913: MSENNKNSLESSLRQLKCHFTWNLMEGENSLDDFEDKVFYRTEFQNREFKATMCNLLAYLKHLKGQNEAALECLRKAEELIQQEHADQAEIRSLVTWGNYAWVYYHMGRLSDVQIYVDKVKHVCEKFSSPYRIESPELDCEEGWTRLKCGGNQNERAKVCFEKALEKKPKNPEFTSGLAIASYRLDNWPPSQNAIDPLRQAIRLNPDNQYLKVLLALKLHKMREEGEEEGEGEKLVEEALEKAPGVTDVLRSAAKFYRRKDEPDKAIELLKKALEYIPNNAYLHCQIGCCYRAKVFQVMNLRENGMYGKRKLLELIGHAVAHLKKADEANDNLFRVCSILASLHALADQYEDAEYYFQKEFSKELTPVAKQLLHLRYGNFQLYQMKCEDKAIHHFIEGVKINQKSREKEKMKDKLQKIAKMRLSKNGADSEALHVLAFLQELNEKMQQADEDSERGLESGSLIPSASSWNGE
UniProt O43837: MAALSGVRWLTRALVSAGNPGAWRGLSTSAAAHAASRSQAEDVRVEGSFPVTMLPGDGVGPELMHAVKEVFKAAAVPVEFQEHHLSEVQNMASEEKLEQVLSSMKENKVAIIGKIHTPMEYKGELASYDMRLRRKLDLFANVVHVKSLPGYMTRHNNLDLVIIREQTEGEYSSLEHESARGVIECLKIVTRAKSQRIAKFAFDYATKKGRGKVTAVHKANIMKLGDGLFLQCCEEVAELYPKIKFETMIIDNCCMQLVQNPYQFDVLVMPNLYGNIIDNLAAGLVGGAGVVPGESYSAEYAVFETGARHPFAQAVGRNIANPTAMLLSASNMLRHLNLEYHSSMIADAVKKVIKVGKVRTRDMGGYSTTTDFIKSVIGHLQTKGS
UniProt Q9H0U3: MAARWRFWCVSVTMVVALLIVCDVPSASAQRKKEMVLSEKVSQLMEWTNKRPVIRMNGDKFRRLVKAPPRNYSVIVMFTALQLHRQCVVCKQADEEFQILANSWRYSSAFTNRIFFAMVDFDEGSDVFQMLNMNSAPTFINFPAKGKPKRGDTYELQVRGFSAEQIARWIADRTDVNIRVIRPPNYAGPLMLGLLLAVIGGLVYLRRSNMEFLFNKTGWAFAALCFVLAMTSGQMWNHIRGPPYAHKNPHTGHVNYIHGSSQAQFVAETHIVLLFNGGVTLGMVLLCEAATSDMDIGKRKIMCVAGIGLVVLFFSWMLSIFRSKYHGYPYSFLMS
UniProt A2A3K4: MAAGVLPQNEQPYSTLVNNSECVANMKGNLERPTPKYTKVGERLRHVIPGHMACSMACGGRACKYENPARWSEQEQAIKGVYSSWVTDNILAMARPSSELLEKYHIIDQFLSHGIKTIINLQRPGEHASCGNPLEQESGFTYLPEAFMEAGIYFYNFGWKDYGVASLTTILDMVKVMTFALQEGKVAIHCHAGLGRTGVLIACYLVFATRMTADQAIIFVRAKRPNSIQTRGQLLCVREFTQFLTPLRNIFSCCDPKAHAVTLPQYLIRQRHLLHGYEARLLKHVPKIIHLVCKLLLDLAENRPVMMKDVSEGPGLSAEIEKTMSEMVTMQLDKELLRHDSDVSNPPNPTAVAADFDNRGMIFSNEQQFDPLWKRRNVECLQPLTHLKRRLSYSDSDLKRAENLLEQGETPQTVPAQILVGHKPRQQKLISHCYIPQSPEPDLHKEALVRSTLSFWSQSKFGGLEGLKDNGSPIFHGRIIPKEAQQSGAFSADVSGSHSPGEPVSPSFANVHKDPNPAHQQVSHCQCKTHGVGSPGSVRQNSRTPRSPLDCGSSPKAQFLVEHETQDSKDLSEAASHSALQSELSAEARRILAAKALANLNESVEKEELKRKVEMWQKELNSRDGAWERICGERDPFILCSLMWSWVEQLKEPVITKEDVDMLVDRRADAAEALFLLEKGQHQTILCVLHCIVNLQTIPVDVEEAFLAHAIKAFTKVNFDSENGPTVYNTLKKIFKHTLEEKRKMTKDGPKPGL
UniProt O60841: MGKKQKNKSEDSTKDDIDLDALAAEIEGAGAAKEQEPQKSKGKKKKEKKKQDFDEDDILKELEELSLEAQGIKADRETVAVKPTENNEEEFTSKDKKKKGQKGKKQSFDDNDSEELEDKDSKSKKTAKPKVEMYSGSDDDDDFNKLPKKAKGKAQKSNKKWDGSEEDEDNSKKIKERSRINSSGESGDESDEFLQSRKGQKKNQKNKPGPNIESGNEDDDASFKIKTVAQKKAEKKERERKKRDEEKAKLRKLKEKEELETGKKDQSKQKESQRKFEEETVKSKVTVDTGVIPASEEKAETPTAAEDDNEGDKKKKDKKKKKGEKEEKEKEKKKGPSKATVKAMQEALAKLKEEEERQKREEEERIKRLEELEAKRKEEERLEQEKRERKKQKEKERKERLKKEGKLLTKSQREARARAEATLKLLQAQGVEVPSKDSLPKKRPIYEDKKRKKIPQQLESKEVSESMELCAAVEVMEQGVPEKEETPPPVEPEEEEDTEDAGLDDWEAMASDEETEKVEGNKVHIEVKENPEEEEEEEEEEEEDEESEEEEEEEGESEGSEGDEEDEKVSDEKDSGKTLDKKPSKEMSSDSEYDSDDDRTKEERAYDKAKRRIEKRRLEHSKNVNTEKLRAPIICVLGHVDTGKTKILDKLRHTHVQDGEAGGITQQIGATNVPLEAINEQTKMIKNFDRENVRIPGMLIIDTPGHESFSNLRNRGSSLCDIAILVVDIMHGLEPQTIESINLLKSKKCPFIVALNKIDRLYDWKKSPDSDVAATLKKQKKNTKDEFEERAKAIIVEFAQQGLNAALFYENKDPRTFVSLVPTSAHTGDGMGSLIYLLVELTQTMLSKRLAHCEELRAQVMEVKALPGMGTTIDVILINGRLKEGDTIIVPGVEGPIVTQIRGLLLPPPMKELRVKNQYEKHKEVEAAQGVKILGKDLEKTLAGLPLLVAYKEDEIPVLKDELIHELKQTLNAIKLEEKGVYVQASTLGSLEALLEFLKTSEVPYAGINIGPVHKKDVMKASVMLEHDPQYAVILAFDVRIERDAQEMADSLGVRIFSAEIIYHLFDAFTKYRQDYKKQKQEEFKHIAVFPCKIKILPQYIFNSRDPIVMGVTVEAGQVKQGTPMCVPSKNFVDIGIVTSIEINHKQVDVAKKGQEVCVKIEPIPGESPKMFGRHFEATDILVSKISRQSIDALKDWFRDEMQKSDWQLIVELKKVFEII
UniProt Q9UHQ1: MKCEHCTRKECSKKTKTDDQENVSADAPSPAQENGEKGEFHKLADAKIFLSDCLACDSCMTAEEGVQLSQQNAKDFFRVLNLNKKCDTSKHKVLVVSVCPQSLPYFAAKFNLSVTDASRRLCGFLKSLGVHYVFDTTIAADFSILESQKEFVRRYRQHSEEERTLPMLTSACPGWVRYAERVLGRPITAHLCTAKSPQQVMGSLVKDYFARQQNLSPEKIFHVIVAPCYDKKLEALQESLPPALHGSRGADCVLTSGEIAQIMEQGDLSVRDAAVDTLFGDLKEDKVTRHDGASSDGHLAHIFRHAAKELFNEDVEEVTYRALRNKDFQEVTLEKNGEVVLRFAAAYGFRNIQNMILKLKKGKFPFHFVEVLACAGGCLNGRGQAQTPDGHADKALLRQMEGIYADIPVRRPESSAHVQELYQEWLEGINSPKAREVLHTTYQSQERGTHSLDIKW
UniProt Q9H4G0, whole entry: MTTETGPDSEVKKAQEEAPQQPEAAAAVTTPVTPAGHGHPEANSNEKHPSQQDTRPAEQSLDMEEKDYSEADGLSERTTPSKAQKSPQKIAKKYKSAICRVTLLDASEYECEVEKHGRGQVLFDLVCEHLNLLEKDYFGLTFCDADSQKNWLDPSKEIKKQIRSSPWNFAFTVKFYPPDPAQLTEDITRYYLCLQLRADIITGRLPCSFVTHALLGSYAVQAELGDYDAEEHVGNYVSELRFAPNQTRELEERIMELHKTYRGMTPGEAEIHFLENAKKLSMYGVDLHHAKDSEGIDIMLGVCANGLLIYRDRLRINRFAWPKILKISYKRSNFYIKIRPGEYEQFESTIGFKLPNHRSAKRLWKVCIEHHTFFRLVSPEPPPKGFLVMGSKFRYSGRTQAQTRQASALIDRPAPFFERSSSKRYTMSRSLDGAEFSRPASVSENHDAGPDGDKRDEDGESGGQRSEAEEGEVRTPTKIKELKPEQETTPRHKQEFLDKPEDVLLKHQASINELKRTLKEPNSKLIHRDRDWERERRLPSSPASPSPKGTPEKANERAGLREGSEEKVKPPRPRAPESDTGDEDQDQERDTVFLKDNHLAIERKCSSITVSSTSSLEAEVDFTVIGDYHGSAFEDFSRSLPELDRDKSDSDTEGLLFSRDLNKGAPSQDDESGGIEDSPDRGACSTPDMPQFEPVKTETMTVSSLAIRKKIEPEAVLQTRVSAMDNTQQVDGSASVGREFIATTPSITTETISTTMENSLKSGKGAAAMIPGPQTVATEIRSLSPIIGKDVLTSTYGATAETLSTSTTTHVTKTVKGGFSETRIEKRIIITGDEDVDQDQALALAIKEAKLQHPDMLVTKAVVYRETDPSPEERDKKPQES
UniProt Q8IW50: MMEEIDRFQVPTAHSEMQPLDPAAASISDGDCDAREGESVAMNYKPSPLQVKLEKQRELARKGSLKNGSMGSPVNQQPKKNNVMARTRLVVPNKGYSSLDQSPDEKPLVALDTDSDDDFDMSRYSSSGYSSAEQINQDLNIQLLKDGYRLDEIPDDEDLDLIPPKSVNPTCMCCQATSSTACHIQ
UniProt Q16836: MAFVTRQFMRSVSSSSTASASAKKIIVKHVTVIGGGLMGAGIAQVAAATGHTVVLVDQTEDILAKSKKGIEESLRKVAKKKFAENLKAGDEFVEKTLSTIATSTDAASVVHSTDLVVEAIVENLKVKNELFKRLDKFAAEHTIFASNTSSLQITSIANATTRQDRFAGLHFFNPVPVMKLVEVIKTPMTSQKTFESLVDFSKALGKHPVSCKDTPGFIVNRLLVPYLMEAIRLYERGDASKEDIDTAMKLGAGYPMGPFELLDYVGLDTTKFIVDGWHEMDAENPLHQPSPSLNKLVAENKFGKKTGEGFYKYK
UniProt Q6VEQ5: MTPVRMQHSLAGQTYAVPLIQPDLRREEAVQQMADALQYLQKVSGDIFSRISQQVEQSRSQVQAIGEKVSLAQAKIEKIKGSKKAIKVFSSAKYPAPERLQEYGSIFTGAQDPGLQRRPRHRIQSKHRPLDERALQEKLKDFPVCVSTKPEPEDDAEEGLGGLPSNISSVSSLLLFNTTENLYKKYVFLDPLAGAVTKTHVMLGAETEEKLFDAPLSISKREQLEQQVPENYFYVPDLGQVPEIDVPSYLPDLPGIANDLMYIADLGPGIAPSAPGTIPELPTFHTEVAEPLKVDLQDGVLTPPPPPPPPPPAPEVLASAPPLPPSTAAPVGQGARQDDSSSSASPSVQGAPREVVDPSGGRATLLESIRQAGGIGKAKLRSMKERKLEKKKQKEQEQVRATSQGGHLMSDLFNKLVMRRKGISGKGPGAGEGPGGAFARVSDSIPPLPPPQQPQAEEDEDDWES
UniProt P04179: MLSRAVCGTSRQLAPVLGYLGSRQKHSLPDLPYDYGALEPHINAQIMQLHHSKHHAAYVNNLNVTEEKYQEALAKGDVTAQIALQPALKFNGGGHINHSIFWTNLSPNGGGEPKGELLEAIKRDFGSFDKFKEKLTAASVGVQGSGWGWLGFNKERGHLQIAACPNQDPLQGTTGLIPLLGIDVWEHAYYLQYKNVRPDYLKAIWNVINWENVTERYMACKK
UniProt Q13418: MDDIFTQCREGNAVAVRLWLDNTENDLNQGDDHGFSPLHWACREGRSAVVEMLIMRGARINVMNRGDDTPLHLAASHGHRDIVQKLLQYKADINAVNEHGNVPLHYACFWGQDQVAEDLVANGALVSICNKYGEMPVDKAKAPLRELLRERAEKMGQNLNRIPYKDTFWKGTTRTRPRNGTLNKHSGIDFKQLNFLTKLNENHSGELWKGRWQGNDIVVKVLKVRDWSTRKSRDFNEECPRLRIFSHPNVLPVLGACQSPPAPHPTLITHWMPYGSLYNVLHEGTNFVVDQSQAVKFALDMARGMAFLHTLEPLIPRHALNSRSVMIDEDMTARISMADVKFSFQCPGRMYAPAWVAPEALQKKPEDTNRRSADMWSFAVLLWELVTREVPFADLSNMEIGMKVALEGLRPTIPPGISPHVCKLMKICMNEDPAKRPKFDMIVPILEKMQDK
UniProt Q96CW1: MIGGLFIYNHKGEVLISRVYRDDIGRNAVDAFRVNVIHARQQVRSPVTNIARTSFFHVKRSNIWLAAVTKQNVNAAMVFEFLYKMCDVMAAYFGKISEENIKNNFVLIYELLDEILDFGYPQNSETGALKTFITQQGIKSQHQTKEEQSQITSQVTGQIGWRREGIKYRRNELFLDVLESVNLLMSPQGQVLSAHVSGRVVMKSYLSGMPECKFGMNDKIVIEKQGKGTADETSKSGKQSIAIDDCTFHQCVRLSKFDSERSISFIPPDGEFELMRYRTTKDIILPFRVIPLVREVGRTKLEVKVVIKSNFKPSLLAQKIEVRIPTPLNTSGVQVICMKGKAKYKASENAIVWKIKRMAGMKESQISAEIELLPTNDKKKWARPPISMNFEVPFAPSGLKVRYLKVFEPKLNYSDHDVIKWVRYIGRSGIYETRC

Compound: Nc1ncnc2c1ncn2[C@@H]1O[C@H](COP(=O)(O)OP(=O)(O)OP(=O)(O)O)[C@@H](O)[C@H]1O [adenosine triphosphate]
Test: NP40-soluble protein abundance relative to vehicle (solubility fold change) (ratio); higher = more soluble protein in presence of ATP
Outline: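 Each value is a fold change relative to the detergent-processed vehicle, calculated per replicate from vsn-normalised intensities. Jurkat crude lysate received eight concentrations (0.1 to 10 mM) for 10 min at room temperature and 3 min at 37 °C, then was solubilised in 0.8% NP40 with benzonase (60 min, 4 °C). The ultracentrifuged supernatant was TMT-labelled and run by LC-MS/MS in three independent experiments.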

Target	NP40-soluble protein abundance (concentration: 1mM)	NP40-soluble protein abundance (concentration: 2mM)	NP40-soluble protein abundance (concentration: 4mM)	NP40-soluble protein abundance (concentration: 6mM)	NP40-soluble protein abundance (concentration: 8mM)	NP40-soluble protein abundance (concentration: 10mM)
A0A087X279|P09913 (UniProt P09913)	1.02 ± 0.022	0.967 ± 0.075	1.08 ± 0.11	1.05 ± 0.047	0.963 ± 0.035	0.976 ± 0.058
A0A0A0MRY0|Q8WUA7 and related entries (UniProt Q8WUA7)	1.07 ± 0.1	1.03 ± 0.071	1.12 ± 0.11	1.06 ± 0.06	1.04 ± 0.11	1.01 ± 0.089
A0A087WZN1|O43837 (UniProt O43837)	0.989 ± 0.088	0.97 ± 0.043	0.933 ± 0.04	0.903 ± 0.096	0.953 ± 0.041	0.949 ± 0.039
A0A0A6YYI3|A0A0B4J1V8|Q9NQ55 and related entries (UniProt Q9NQ55)	1.03 ± 0.032	1.04 ± 0.037	1.17 ± 0.066	1.28 ± 0.013	1.32 ± 0.069	1.43 ± 0.098
A0A087WWK8|Q6DN90 (UniProt Q6DN90)	1.12 ± 0.08	1.09 ± 0.1	1.12 ± 0.035	1.12 ± 0.12	1.1 ± 0.11	1.16 ± 0.16
A0A087WXM6|A0A0A6YYL6|J3KRX5 and related entries (UniProt P18621)	0.925 ± 0.091	0.852 ± 0.1	0.787 ± 0.13	0.766 ± 0.14	0.525 ± 0.091	0.8 ± 0.13
A0A087WU53|Q9H0U3 (UniProt Q9H0U3)	0.987 ± 0.075	0.967 ± 0.046	1 ± 0.1	0.945 ± 0.061	0.996 ± 0.056	0.979 ± 0.043
A0A087WW77|Q15334 (UniProt Q15334)	1.07 ± 0.017	1.07 ± 0.03	1.06 ± 0.015	1.03 ± 0.014	1.07 ± 0.05	1.07 ± 0.068
A0A087X0H9|Q5T8P6 and related entries (UniProt Q5T8P6)	1.19 ± 0.057	1.224 ± 0.01	1.2 ± 0.03	1.24 ± 0.02	1.187 ± 0.0065	1.22 ± 0.021
A0A087WTF0|A2A3K4 and related entries (UniProt A2A3K4)	1.05 ± 0.11	1.14 ± 0.18	1.09 ± 0.05	1.21 ± 0.037	1.13 ± 0.14	0.993 ± 0.11
A0A087WUT6|O60841 (UniProt O60841)	0.938 ± 0.029	0.928 ± 0.014	0.9 ± 0.02	0.966 ± 0.011	0.935 ± 0.013	0.943 ± 0.021
A0A088AWN8|Q9UHQ1 and related entries (UniProt Q9UHQ1)	0.91 ± 0.066	0.949 ± 0.11	0.932 ± 0.043	0.985 ± 0.082	0.996 ± 0.055	0.963 ± 0.13
A0A0D9SG07|Q9H4G0-4 (UniProt Q9H4G0)	0.961 ± 0.037	0.944 ± 0.042	0.9573 ± 0.0047	1 ± 0.053	0.938 ± 0.05	0.912 ± 0.04
A0A0A0MRW1|Q5T593 and related entries (UniProt Q8IW50)	0.8988 ± 0.0025	0.866 ± 0.059	0.818 ± 0.1	0.899 ± 0.16	0.858 ± 0.044	0.859 ± 0.13
A0A0A0MSE2|E9PF18 and related entries (UniProt Q16836)	0.967 ± 0.068	0.9477 ± 0.0081	0.919 ± 0.029	0.973 ± 0.039	0.949 ± 0.017	0.908 ± 0.031
A0A087WX71|Q9H501 (UniProt Q9H501)	1.03 ± 0.018	1.04 ± 0.019	1.06 ± 0.033	1.11 ± 0.034	1.09 ± 0.031	1.1 ± 0.015
A0A087X1S6|B5MDU3 and related entries (UniProt Q96JA3)	1.01 ± 0.12	1.02 ± 0.16	1.04 ± 0.2	1.07 ± 0.21	1.02 ± 0.23	1.07 ± 0.27
A0A0A0MT60|Q5T1M5 (UniProt Q5T1M5)	0.955 ± 0.049	0.963 ± 0.046	0.954 ± 0.054	0.984 ± 0.056	0.93 ± 0.055	0.955 ± 0.06
A0A087WXR7|Q5TBB1 (UniProt Q5TBB1)	0.957 ± 0.034	0.943 ± 0.01	0.903 ± 0.02	0.966 ± 0.028	0.914 ± 0.049	0.911 ± 0.025
A0A096LP75|C4AMC7 and related entries (UniProt Q6VEQ5+C4AMC7)	0.904 ± 0.033	0.9664 ± 0.0048	0.997 ± 0.066	0.961 ± 0.089	0.936 ± 0.057	0.895 ± 0.018
A0A0C4DFU2|P04179 (UniProt P04179)	0.905 ± 0.095	0.936 ± 0.11	0.881 ± 0.092	0.897 ± 0.11	0.902 ± 0.071	0.878 ± 0.1
A0A087WU62|A0A087X2D5|A0A0G2JMS5|Q9BRJ2 (UniProt Q9BRJ2)	1.08 ± 0.091	0.961 ± 0.086	0.977 ± 0.089	0.995 ± 0.19	1.03 ± 0.17	0.969 ± 0.12
A0A087WTV6|Q96C36 (UniProt Q96C36)	0.984 ± 0.069	0.974 ± 0.084	0.931 ± 0.046	0.985 ± 0.1	0.929 ± 0.059	0.944 ± 0.032
A0A0A0MTH3|Q13418 (UniProt Q13418)	0.977 ± 0.047	0.956 ± 0.035	0.938 ± 0.042	0.92 ± 0.086	0.958 ± 0.045	0.951 ± 0.049
A0A075B746|P82921 (UniProt P82921)	1.04 ± 0.14	0.975 ± 0.048	1 ± 0.081	0.899 ± 0.11	1.01 ± 0.19	0.882 ± 0.089
A0A0C4DGG9|Q14839 and related entries (UniProt Q14839)	1.04 ± 0.012	1.013 ± 0.0054	1.01 ± 0.014	1.02 ± 0.013	1.06 ± 0.017	1.04 ± 0.026
A0A087X1Z1|A0A0G2JPW5|A0A0G2JQX1|A0A0G2JSA7|Q96RT8 and related entries (UniProt Q96RT8)	0.996 ± 0.088	0.941 ± 0.057	0.994 ± 0.06	0.89 ± 0.048	0.982 ± 0.075	0.957 ± 0.076
A0A087WY71|Q96CW1 and related entries (UniProt Q96CW1)	1.1 ± 0.098	1.08 ± 0.07	1.1 ± 0.062	1.06 ± 0.11	1.12 ± 0.015	1.12 ± 0.036
A0A0A0MTH9|O14981 (UniProt O14981)	1 ± 0.014	1 ± 0.029	0.989 ± 0.018	0.9716 ± 0.0085	0.988 ± 0.016	0.991 ± 0.029

Record cards (already shown):
A0A088AWN8|Q9UHQ1 and related entries (UniProt Q9UHQ1) as listed: NP40-soluble protein abundance (concentration: 1mM): 0.91 ± 0.066; NP40-soluble protein abundance (concentration: 2mM): 0.949 ± 0.11; NP40-soluble protein abundance (concentration: 4mM): 0.932 ± 0.043; NP40-soluble protein abundance (concentration: 6mM): 0.985 ± 0.082; NP40-soluble protein abundance (concentration: 8mM): 0.996 ± 0.055; NP40-soluble protein abundance (concentration: 10mM): 0.963 ± 0.13
A0A087WU53|Q9H0U3 (UniProt Q9H0U3) as listed: NP40-soluble protein abundance (concentration: 1mM): 0.987 ± 0.075; NP40-soluble protein abundance (concentration: 2mM): 0.967 ± 0.046; NP40-soluble protein abundance (concentration: 4mM): 1 ± 0.1; NP40-soluble protein abundance (concentration: 6mM): 0.945 ± 0.061; NP40-soluble protein abundance (concentration: 8mM): 0.996 ± 0.056; NP40-soluble protein abundance (concentration: 10mM): 0.979 ± 0.043
